Measured values published in paper PMC12405378.
Construct, isoform or probe ends are uncertain for at least one entry.

Amino acid sequences for entries named in this document (tags omitted). A change or cut given only in a name is not applied to a line headed by its entry.
UniProt Q13151: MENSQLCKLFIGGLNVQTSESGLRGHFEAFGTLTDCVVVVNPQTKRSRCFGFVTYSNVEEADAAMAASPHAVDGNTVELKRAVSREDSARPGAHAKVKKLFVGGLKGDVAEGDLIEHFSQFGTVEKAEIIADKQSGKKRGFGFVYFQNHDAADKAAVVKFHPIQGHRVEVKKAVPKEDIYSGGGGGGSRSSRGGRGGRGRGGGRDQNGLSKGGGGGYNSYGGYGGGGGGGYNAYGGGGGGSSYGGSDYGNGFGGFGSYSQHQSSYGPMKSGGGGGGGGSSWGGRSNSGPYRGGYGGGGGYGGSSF

Target: GST-hnRNPA0 (UniProt Q13151)
Experiment: EMSA
Settings: 250 ng RNA, 10 and 25 ug protein; EMSA: 30 min at RT in a binding buffer cited to ref 39 (composition, salt and pH not given); 10% native PAGE, 0.5x TBE; recombinant protein; residues 1-305; protein details: N-terminal GST (pGEX-5X-2); label: biotin-16-UTP (internal); probe letters rebuilt from the primers and the genome; part of a longer molecule

CACAGAUGUGUGAUUCACAGUGUGAAUCUUGGUGUCUACGUUACCAGGCAGGAAGGCUGAGAGGAGAGAGACUCCAGCUGGGUUGGAAAACAGUAUUUUCCAAACUACCUUCCAGUUCCUCAUUUUUGAAUACAGGCAUAGAGUUCAGACUUUUUUUAAA [FrC1 RNA (CCR2 3'-UTR, 160 nt)]
binding result: binds
